## Results from one PubChem assay

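Genome-wide siRNA knockdown in TC32 Ewing sarcoma cells, comparing luciferase light from an NR0B1-promoter reporter with a CMV-promoter reporter 48 hours after transfection. Each siRNA was applied at 20 nM. A z-score of the log NR0B1-over-CMV signal, less the median of siRNAs with the same seed; more negative means a stronger specific loss of the NR0B1 reporter.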

The strongest results of the screen are mostly left out here. Sequences are the guide (antisense) strand, without overhang.

Result for UUUACUUGUAGCAAGAAUG against IPO9 was seed-corrected z-score 0.9297.
Result for UAAGUUUGGAGAGGCUGCA against SP6 was seed-corrected z-score -0.4625.
Result for AUCGUUCUGAGCUGGAUCA against GYPC was seed-corrected z-score -1.029.
Result for UACAUGCCUGCGUUGAUCU against GMPPB was seed-corrected z-score -0.09527.
Result for UGCGGCUCCACUUUGUUCU against LOC100288510 was seed-corrected z-score -0.2202.
Result for UCUUCUAAAAUGAAGCCUC against XPA was seed-corrected z-score -0.2811.
Result for UUGUCUAGAAUAGAUAAUG against CFAP70 was seed-corrected z-score 0.2418.
Result for UCAGAUAUGGUGAUGGGCC against RNF216 was seed-corrected z-score 0.4285.
Result for UCUAUAUCAACAUUACUGC against VDAC3 was seed-corrected z-score 0.1897.
Result for UAUCGUUGGAGAUUUAAGG against CSN2 was seed-corrected z-score 0.4961.
Result for UGUUAGACUGGGAAGGACU against AVPI1 was seed-corrected z-score 0.2423.
Result for UGAGCGAAGAGCACGUUCU against PRKAR1B was seed-corrected z-score -0.9266.
Result for AAUACGAUUCGGGACAUUU against GABRA5 was seed-corrected z-score 0.6497.
Result for UGUCAAAUGAACAAUCACC against ERAS was seed-corrected z-score -0.7168.
Result for UUUUGGGUCAACAGUGUCC against P4HA3 was seed-corrected z-score 0.766.
Result for UAAUUUCUGCGGAACACCA against USH1G was seed-corrected z-score 1.086.
Result for UUUCAAAAGAAAUACCUGC against TMED7 was seed-corrected z-score 0.2427.
Result for AUAUUGAACACCUCCAGCU against GORASP1 was seed-corrected z-score 0.4384.
Result for UGCUCUCCAAGUUUUGAUG against FN3K was seed-corrected z-score -0.14.
Result for UAAUCUACUACAAGUGUGC against SOAT1 was seed-corrected z-score 0.3789.
Result for UAUCUAGAUAAAUCAGUAG against TNFRSF19 was seed-corrected z-score 0.4.
Result for UUCUCGAAGUGCCAACCGC against HRK was seed-corrected z-score -0.6918.
Result for UCUGGUCAAAGGUUUGCUG against U2AF2 was seed-corrected z-score -1.997.
Result for UGCUUGUUGAGAUGCUCCC against ZNF319 was seed-corrected z-score 0.882.
Result for UUUCCUGCGAGAAUCCUGG against LPCAT1 was seed-corrected z-score -0.6161.
Result for AUAGUUGCAGGUAACCACC against POLI was seed-corrected z-score -1.96.
Result for UGCAGCAACAGUUAGCAGC against C7orf57 was seed-corrected z-score 0.2877.
Result for UCAUAGGAGAGAAAAUUCU against ULBP3 was seed-corrected z-score 1.236.
Result for UAACUGGUCAUUAGCUUGC against RABEP1 was seed-corrected z-score 0.01542.
Result for AGAGUUGUUGAUCUGGGUG against LGALS9B was seed-corrected z-score 0.3998.
Result for UUCGGUAUAAAUUCCAAGG against SETMAR was seed-corrected z-score 0.9122.
Result for UUUGAUGUCAUCUCCCAUG against RNF38 was seed-corrected z-score -0.1861.
Result for UCUGGUUCUUGGUUGGAGG against TP53INP1 was seed-corrected z-score -1.742.
Result for UUUUGUAGAAGAGUCAUCG against CCM2 was seed-corrected z-score 0.01319.
Result for UCUUUAUUAGCUUCCAUUU against STMN1 was seed-corrected z-score -0.769.
Result for UUAUUGACGACAGUUUUGU against RPL27 was seed-corrected z-score -0.1931.
Result for UCAAAUUCCAGAGCUGCGC against OXCT2 was seed-corrected z-score -0.9098.
Result for UUAAAUUCCUCCUUGUCUG against ZSCAN10 was seed-corrected z-score 0.0162.
Result for ACCUUGAUCAUGGAGAUGG against OR6B3 was seed-corrected z-score -0.4983.
Result for UUCCGGUCAAGUAGUCAGC against OR2T12 was seed-corrected z-score -0.8464.
Result for AGACGAGUAACAGUGAUUC against LOC648570 was seed-corrected z-score -0.141.
Result for UUACAGAACUGUCAUAGCC against KCNQ1 was seed-corrected z-score 0.4074.
Result for UUUACUGACAGGAUCAUGC against RPA1 was seed-corrected z-score 0.004823.
Result for UUUACCAACAAUUCCAAUG against PSMA1 was seed-corrected z-score 0.5731.

Some entries from above, unchanged:

UACAUGCCUGCGUUGAUCU against GMPPB gave seed-corrected z-score -0.09527.
UAAUCUACUACAAGUGUGC against SOAT1 gave seed-corrected z-score 0.3789.
UCUUCUAAAAUGAAGCCUC against XPA gave seed-corrected z-score -0.2811.

Source: PubChem BioAssay AID1159506 (NCATS, 2015).